Data source: PubChem BioAssay AID1053208 (Peter MacCallum Cancer Centre, 2014)

Purpose: 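Genes whose silencing cuts survival of bone tumour cells only with doxorubicin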 (primary screen)
Cells: mouse osteosarcoma cells, early-passage culture from an engineered mouse model of fibroblastic bone tumour
Reagents: siRNA pool against mouse genes, 40 nM
Time to read-out: about 120 h (48 h before drug, then 72 h with drug)
Conditions: doxorubicin 100 nM for 72 h, roughly 30-40% inhibitory dose
Measurement: 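Luminescent ATP signal taken as viability with or without 100 nM doxorubicin for 72 h; mean of two wells set against non-targeting siRNA and turned into robust z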
Scale: viability z-score with doxorubicin: higher = more viable cells under doxorubicin; viability z-score without drug: higher = more viable cells with knock-down alone
Rule for the call: 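Called active if knock-down leaves viability unchanged without drug (z within -2 to 2) but lowers it with doxorubicin (z at or under -2)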
This is an unselected part of about 17,000 deposited reagents. 788 of all reagents (4.7%) were called active. 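Calls rest on z-score classes alone; an extra cut-off of viability at most 70% of control was not applied to them.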 A number with no mark means an inactive call. Not all columns of the deposit are shown.

target gene	PubChem SID	combined z-score class	viability z-score with doxorubicin	viability z-score without drug
Pmp22	SID152302778	no change with or without drug	0.9	-0.34
Slc15a4	SID152278182	no change with or without drug	-1.91	-0.84
Tbc1d4	SID152336501	no change with or without drug	0.22	0.51
Slc22a2	SID152339842	no change with or without drug	-1.12	0.17
Nes	SID152291456	no change with or without drug	0.11	0.17
Tmem88	SID152268477	no change with or without drug	0.45	0.51
Dld	SID152300419	no change with or without drug	0.67	0.34
Sh3rf1	SID152327521	no change with or without drug	0.67	0.34
Tmem138	SID152276155	no change with or without drug	0.9	1.18
Lima1	SID152326544	no change with or without drug	1.01	-0.51
Ankar	SID152321220	no change with or without drug	-0.45	-0.17
Or10g1b	SID152295403	no change with or without drug	0.56	-0.51
Pcdha5	SID152284469	no change with or without drug	-1.12	-1.18
Tph2	SID152320300	no change with or without drug	0.45	-0.17
Cd86	SID152329814	no change with or without drug	0.56	-0.17
Ube2z	SID152283933	no change with or without drug	0.45	-0.84
Cacna1f	SID152326326	no change with or without drug	0.67	0.51
Nqo1	SID152308559	no change with or without drug	0.79	1.35
Il20ra	SID152268711	no change with or without drug	0.9	1.35
Glrp1	SID152341354	high cell count with doxorubicin only	2.14	1.52
Dntt	SID152259285	high cell count without drug only	1.46	2.36
Tmem270	SID152330610	no change with or without drug	-0.9	0
Abcb11	SID152287680	no change with or without drug	0	0.84
Elfn1	SID152311268	no change with or without drug	-1.12	-1.18
Slc26a7	SID152311257	high cell count with doxorubicin only	2.02	1.85
Ltk	SID152263433	no change with or without drug	0.34	0.34
A430072C10Rik	SID152323055	no change with or without drug	-1.12	1.85
Ntm	SID152328747	no change with or without drug	0.45	0
Bhlhe41	SID152305016	low cell count without drug only	0.79	-2.19
Rpl21	SID152329615	low cell count with and without drug	-4.27	-2.87
Cstb	SID152286807	no change with or without drug	1.8	-0.51
Pot1a	SID152268320	no change with or without drug	1.24	1.52
Lcn9	SID152331670	no change with or without drug	0	0.84
Has3	SID152329911	no change with or without drug	0.56	0.84
Afm	SID152259512	no change with or without drug	0.67	0.51
Arsk	SID152264322	low cell count without drug only	-0.22	-4.22
Or8c10	SID152330938	no change with or without drug	0.67	1.85
Kcnip2	SID152265208	no change with or without drug	-0.9	-0.51
Cish	SID152263409	no change with or without drug	-0.45	-0.17
Acad8	SID152297971	no change with or without drug	-1.12	-1.18
4930524B15Rik	SID152298131	high cell count without drug only	-0.9	2.02
Spata31f3	SID152319897	no change with or without drug	0	-0.34
Apol10b	SID152332605	low cell count with doxorubicin only (active)	-2.59	-1.18
Wnt11	SID152277184	no change with or without drug	-1.12	0.34
Vxn	SID152270099	no change with or without drug	0.9	0.51
Calm2	SID152272918	no change with or without drug	-0.45	0.34
Magea8	SID152310326	no change with or without drug	-1.12	-1.01
Mgat4d	SID152267850	no change with or without drug	-0.45	1.52
Stam	SID152300302	no change with or without drug	-0.22	0.17
Plppr3	SID152332586	no change with or without drug	-0.45	1.18

Copied from the listing, 8 entries:
target gene	PubChem SID	combined z-score class	viability z-score with doxorubicin	viability z-score without drug
Ube2z	SID152283933	no change with or without drug	0.45	-0.84
Cacna1f	SID152326326	no change with or without drug	0.67	0.51
Nqo1	SID152308559	no change with or without drug	0.79	1.35
Il20ra	SID152268711	no change with or without drug	0.9	1.35
Glrp1	SID152341354	high cell count with doxorubicin only	2.14	1.52
Dntt	SID152259285	high cell count without drug only	1.46	2.36
Tmem270	SID152330610	no change with or without drug	-0.9	0
Abcb11	SID152287680	no change with or without drug	0	0.84
